# Laboratory results from PubChem BioAssay AID2417 (National Center for Advancing Translational Sciences (NCATS), 2010).
# About 4,300 (3.1%) of roughly 140,000 compounds were called active. This list was built around the results that the source calls inconclusive (neither active nor inactive); the mix of calls is not that of the screen.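 Rule for the calls: active = readout at or below -70, meaning at least 70% loss of cells showing the perinucleolar compartment, a nuclear body marking cancer cells; inconclusive = readout between -30 and a set limit; inactive = the rest.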
# Experiment: High Content Assay for Compounds that inhibit the Assembly of the Perinucleolar Compartment;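 note: plate controls were DMSO wells for no effect and camptothecin positive control wells for full effect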
# Conditions: PC3M PTB-GFP, PNC prevalence imaging, 16 h; at 10 µM; stronger effect = lower value
# How it was run: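 Read-out is percentage of cells bearing a perinucleolar compartment, from automated 20x imaging of fixed, Hoechst-stained PC3M PTB-GFP cells. Cells were seeded 4 h, then exposed 16 h to compound (23 nl of library stock) in duplicate plates.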
row,Compound,"activity change (PNC), negative = inhibition"
1,O=C(COc1ccc(Cl)cc1)NCc1nnc(SCC(=O)NC2CCCCC2)o1,inconclusive: -70.8%
2,CC(=O)Nc1c(C)ccc2nsnc12,inconclusive: -43.3%
3,CC(C)OC(=O)c1ccc(N2C(=O)C3CC=CCC3C2=O)cc1 (stereo not given),inconclusive: -55.5%
4,COC(=O)c1c(C(=O)OC)c(-c2ccc(C)cc2)n2c1CS(=O)(=O)C2,inconclusive: -42.7%
5,COc1ccc(Br)cc1C(=O)N/N=C/c1ccc2c(c1)n(C)c(=O)n2C,active: -82%
6,COc1cc(C(=O)NCc2cccc3ccccc23)cc(Cl)c1OC,inactive: 40.6%
7,CC(C)(C)OC(=O)N1CCCC1C(=O)N1CCCC1C(=O)N1CCCC1C(=O)O (stereo not given),inconclusive: -39.9%
8,NNc1ncnc2c1cnn2-c1ccccc1,inconclusive: -75.4%
9,N/C(Cc1ccc([N+](=O)[O-])cc1)=N\OC(=O)c1ccc(Br)cc1,inconclusive: -61.8%
10,Cc1ccc(NC(=O)CN(C)C(=O)COc2cccc3cccnc23)cc1,inactive: 43.1%
11,CCOC(=O)N1CCC(N2C(=O)c3cc(C(=O)NC4CCCCC4)ccc3C2O)CC1 (stereo not given),inactive: 26.3%
12,Cc1ccc(CN2CCN(CC(=O)N=Nc3c(O)[nH]c4ccccc34)CC2)cc1,inconclusive: -33.5%
13,COc1ccc(-c2nnc3ccc(SCC(=O)N4CCCCC4)nn23)cc1OC,inconclusive: -63.5%
14,Cc1ccc2c(c1)NCC(C(=O)NC1CCCCC1)O2 (stereo not given),inconclusive: -31.9%
15,CC(=O)N=C1SC2CS(=O)(=O)CC2N1c1ccccc1Cl (stereo not given),inconclusive: -34.8%
16,CCN(CC(=O)NC)S(=O)(=O)c1ccc(Br)cc1,inactive: 47.1%
17,Cc1ccc(C(=O)Nc2ccc(S(=O)(=O)N3CCN(C)CC3)cc2)cc1,inconclusive: -44.1%
18,COC(=O)C(c1cc(OC)c(O)c(OC)c1)(N1CCNC(C)C1)C(F)(F)F (stereo not given),inconclusive: -47.9%
19,CCOc1cc(CN2CCCCC2)ccc1OC,inactive: -27.8%
20,Cc1ccc2c(c1)/C(=N/O)CCS2,inconclusive: -49.4%
21,CCCCCOc1ccc(NS(C)(=O)=O)cc1,inconclusive: -44.7%
22,[O-][n+]1onc2c1C(N1CCOCC1)CCC2N1CCOCC1 (stereo not given),inconclusive: -55.2%
23,COc1ccc(-n2nnc3c(SCC(=O)Nc4ccc5c(c4)OCCO5)ncnc32)cc1,active: -83.4%

row,Compound,"activity change (PNC), negative = inhibition"
1,O=C(Nc1ccc(C#Cc2ccccc2)cc1)C1CC1,inconclusive: -62.1%
2,Cc1c(Cl)c([N+](=O)[O-])nn1CC(=O)NC12CC3CC(CC(C3)C1)C2,inactive: -29.4%
3,CC1Oc2ccccc2C=C1/C=N/NC(=O)c1ccccc1 (stereo not given),inconclusive: -32.1%
4,Cc1cc(Cl)ccc1OCCCC(=O)NCCN1C(=O)S/C(=C\c2cccnc2)C1=O,inactive: -1.94%
5,CCOC(=O)c1c(NC(=O)CSc2nnc(-c3ccc(C)cc3)o2)sc(C(C)=O)c1C,inactive: -23.4%
6,Cc1nn(Cc2ccccc2)c(C)c1NC(=O)Cn1nc([N+](=O)[O-])c(Cl)c1C,inconclusive: -42%
7,Nc1c(N2CCCC2)cc(Cl)c2nonc12,inactive: 61.6%
8,Cc1csc(=O)n1CC(=O)OCc1cccc2ccccc12,active: -100%
9,C=CCn1c(SCC(=O)Nc2ncc(Cc3ccc(Br)cc3)s2)nnc1-c1ccncc1,inactive: 74.5%
10,CCOC(=O)Nc1ccc(NS(=O)(=O)c2ccc(C)cc2)cc1,inactive: 24.5%
11,COC(=O)CCc1nc2ccccc2[nH]c1=O,inactive: -26.3%
12,Cn1nnc(C(O)CN2CCOCC2)n1 (stereo not given),inconclusive: -42.5%
13,CN(CC(=O)NCc1ccco1)S(=O)(=O)c1cccc2cccnc12,inactive: 48.8%
14,Cc1ccc(S(=O)(=O)NNC(=O)C2Cc3c(ccc4ccccc34)O2)cc1 (stereo not given),inconclusive: -32.2%
15,O=C(NCCCN1CCOCC1)c1coc2ccccc2c1=O,inconclusive: -30%
16,COc1ccc(/C=N/NC(=O)c2nc(Cl)c(Cl)c(N)c2Cl)cc1COc1ccc(F)cc1F,inconclusive: -35.6%
17,COc1cc(NS(=O)(=O)c2ccc3c(c2)n(C)c(=O)n3C)cc(OC)c1,inactive: 44.1%
18,Fc1ccc(CSc2nc3ccccc3[nH]2)c2ccccc12,inactive: -7.8%
19,CC(=O)Nc1cc2c(cc1C(C)=O)OCCO2,inconclusive: -53.5%
20,COCCOCCn1c(CCCO)nc2ccccc21,inconclusive: -33.4%
21,Cc1onc(-c2c(F)cccc2Cl)c1C(=O)OCn1nnc2ccccc2c1=O,inactive: 67.3%
22,Cc1cc(N)c(NC2=CC(=O)CC(C)(C)C2)cc1C,inconclusive: -62.4%
23,C/C(=N\NC(=O)c1ccncc1)c1cc2ccccc2oc1=O,inconclusive: -34.7%

row,Compound,"activity change (PNC), negative = inhibition"
1,COc1ccc(Cn2nnnc2C(c2cc3ccc(OC)cc3[nH]c2=O)N2CCC(C)CC2)cc1 (stereo not given),inactive: 26.3%
2,S=C(NN=C1C2CC3CC(C2)CC1C3)Nc1ccccc1,inactive: -6.65%
3,COC(=O)C(NC(=O)c1ccccc1)(Nc1cc(C)cc(C)n1)C(F)(F)F (stereo not given),inconclusive: -42.6%
4,Cc1ccc(NNC(=O)C(O)(c2cccc(C(F)(F)F)c2)c2cccc(C(F)(F)F)c2)cc1,inactive: 21.7%
5,Cc1[nH]n(-c2ccccc2)c(=O)c1C(c1cccc([N+](=O)[O-])c1O)c1c(C)[nH]n(-c2ccccc2)c1=O,inconclusive: -79.6%
6,CCOc1ccc(NS(=O)(=O)N(C)C)cc1,inconclusive: -47.4%
7,NS(=O)(=O)c1cc2c(cc1C(F)(F)F)NC(Cc1ccccc1)NS2(=O)=O (stereo not given),inconclusive: -31.5%
8,CCn1c2ccccc2c2cc(NC(=O)c3ccc(Br)o3)ccc21,inconclusive: -34.8%
9,C=CCn1c(SCC(=O)OCc2ccccc2)nc2c1c(=O)n(C)c(=O)n2C,inconclusive: -61.8%
10,CC(C)(C)c1ccc(/C([O-])=C(/C(=S)NCc2ccco2)[n+]2ccccc2)cc1,inactive: 33.8%
11,CCOC(=O)c1cc2c(=O)n3ccccc3nc2n(CC(C)C)c1=NC(=O)c1ccco1,inconclusive: -64.7%
12,COc1ccc(NC(=O)c2ccc3ccccc3n2)cc1S(=O)(=O)N1CCCCC1,inactive: 13.5%
13,Cc1ccc(C(=O)CNc2cccc(Cl)c2)cc1,inactive: 25.7%
14,CCCCn1c(SCC(=O)OCC)nc2c1c(=O)[nH]c(=O)n2C,active: -119%
15,COc1ccccc1-c1c(C)nn2c(N3CCC4(CC3)OCCO4)cc(C)nc12,inconclusive: -48.1%
16,COc1ccc(CNC(=O)CSc2nnnn2-c2ccccc2)cc1,inconclusive: -64.7%
17,O=C(CSc1nnc(COc2cccc3cccnc23)o1)N1CCN(C(=O)c2ccco2)CC1,active: -100%
18,O=C1CCN(S(=O)(=O)c2ccccc2)C2CCCCC12 (stereo not given),active: -86.5%
19,COc1ccc(C2=NO[C@@H]3C(=O)N(c4ccc5c(c4)OCCO5)C(=O)[C@H]23)cc1OC,inconclusive: -36.8%
20,COc1ccc(NC(=O)NCCCN2CCCC2=O)cc1,inconclusive: -38.7%
21,CCOc1cc(-c2noc(-c3cccnc3)n2)ccc1OC,inconclusive: -30.1%
22,O=C(NCc1cccnc1)/C(=C\c1ccc(-c2ccc(Cl)c(Cl)c2)o1)S(=O)(=O)c1ccccc1,active: -80.9%
23,CCCCN(CC)S(=O)(=O)c1ccc(C(=O)Nc2nnc(-c3ccccc3Cl)o2)cc1,inactive: -16.4%

# Filtered by structure: the compounds so far with bromine
row,Compound,"activity change (PNC), negative = inhibition"
5,COc1ccc(Br)cc1C(=O)N/N=C/c1ccc2c(c1)n(C)c(=O)n2C,active: -82%
9,N/C(Cc1ccc([N+](=O)[O-])cc1)=N\OC(=O)c1ccc(Br)cc1,inconclusive: -61.8%
16,CCN(CC(=O)NC)S(=O)(=O)c1ccc(Br)cc1,inactive: 47.1%
9,C=CCn1c(SCC(=O)Nc2ncc(Cc3ccc(Br)cc3)s2)nnc1-c1ccncc1,inactive: 74.5%
8,CCn1c2ccccc2c2cc(NC(=O)c3ccc(Br)o3)ccc21,inconclusive: -34.8%

# The list goes on.

row,Compound,"activity change (PNC), negative = inhibition"
1,O=C(c1cc2ccccc2c(=O)o1)N1CCCCCC1,inactive: 2.87%
2,COc1ccc(C(O)Cc2nc3ccccc3n2C)cc1OC (stereo not given),inconclusive: -56.2%
3,CCC(C(=O)c1ccc(O)cc1)c1ccccc1 (stereo not given),inconclusive: -51.2%
4,CCCCOC(=O)c1[nH]c2c(c1C)C(=O)CC(c1cc(OC)c(OC)c(OC)c1)C2 (stereo not given),inactive: -6.87%
5,O=C(O)c1cc(-c2ccco2)nc2ccc(Br)cc12,inconclusive: -48.4%
6,CCNS(=O)(=O)c1ccc(OC)c(C)c1,inconclusive: -49.8%
7,O=S(=O)(NCCc1cn2ccccc2n1)c1ccc2c(c1)OCCO2,inconclusive: -69.3%
8,NC(=O)C1CCN(Cc2nc3ccccc3c(=O)[nH]2)CC1,inconclusive: -33.5%
9,Cc1cccc(N(Cc2ccccc2F)S(C)(=O)=O)c1,inconclusive: -30.3%
10,CCOc1ccc(CCNC(=O)CCn2cccc2)cc1OCC,inconclusive: -44.5%
11,N#CCCN(CC(=O)O)S(=O)(=O)c1ccccc1,inconclusive: -64.4%
12,O=C(CSC1=Nc2ccccc2C2=NC(CC(=O)NC3CCCCC3)C(=O)N12)NCc1ccco1 (stereo not given),inconclusive: -42.7%
13,Cc1cc(C)n(-c2ccc(C(=O)NCc3ccc4c(c3)OCO4)cc2)n1,inconclusive: -44.3%
14,CCc1nnc(NC(=O)CSc2nnc(COc3ccc(C)cc3)n2-c2ccccc2)s1,inconclusive: -67.4%
15,C/C(=N\Nc1ccc(C(F)(F)F)cc1[N+](=O)[O-])C(C)C,inconclusive: -36.1%
16,CC(C)c1ccc(NC(=O)Cn2cccc2C2=NC(c3ccccc3)CO2)cc1 (stereo not given),inconclusive: -31.1%
17,COc1ccc(-n2cnnc2SCC(=O)Nc2cc(C(C)(C)C)nn2-c2ccccc2)cc1,inconclusive: -48.8%
18,CCOc1cc(N2CCOCC2)c(OCC)cc1NC(=O)Cc1ccc(OC)c(OC)c1,active: -124%
19,Cn1c(SCC(=O)NCc2cccs2)nnc1-c1ccncc1,inconclusive: -60.2%
20,COc1ccc(C(=O)OCc2cc3cccc(C)c3[nH]c2=O)cc1,inactive: -7.24%
21,Cc1noc(C)c1C(=O)Nc1sc2c(c1C(N)=O)CCCCC2,inconclusive: -41.8%
